Data set [1] can be described thus: general procedure: peptide synthesis; HMP-resin; BOP, DIEA (solution-phase fragment couplings). The settings on record: tetrakis-trifluoroacetic acid salt.
Another data set is described as follows: peptide synthesis. The conditions noted are these: late stage modification step.

With “CBZ-Cys(CBZ)-Thr(O-t-Bu)-Gly-Hpu(N7,N12-di-CBZ,O9-THP)-His(BOC)-Gly-O-t-Bu”, the step yield in data set [1] (coupling step) worked out at 81%.
As to “Cys-Thr-Gly-Hpu-His-Gly (SEQ ID NO: 3), Trifluoroacetic Acid Salt”, the step yield turned out to be 22% in “peptide synthesis” (tetrakis-TFA salt) and 24% in the data set “peptide synthesis” (tetrakis-trifluoroacetic acid salt). Also, the isolated mass in data set [1] (whole synthesis, scale 19.3 umol) came out at 5.2 mg. Further, the isolated yield in data set [1] (whole synthesis) was 24%.

The values are drawn from patent publication US6492491 (dated 2002).
